Assay results taken from PubChem BioAssay AID2517 (National Center for Advancing Translational Sciences (NCATS), 2010).
About 1,200 (0.34%) of roughly 350,000 compounds were called active. This list was built around the results that the source calls inconclusive (neither active nor inactive); the mix of calls is not that of the screen. Calls come from the whole dose curve; as a rule, active = well fitted inhibition curve with a large enough effect; inconclusive = small, poorly fitted or top-dose-only effect; inactive = no such curve, though single readings can be large or run the other way. Potencies of inconclusive entries are doubtful fits and often do not repeat.

Protein sequences, listed by entry. Tags and fused reporters are not part of them.
UniProt P27695, whole entry, looked up: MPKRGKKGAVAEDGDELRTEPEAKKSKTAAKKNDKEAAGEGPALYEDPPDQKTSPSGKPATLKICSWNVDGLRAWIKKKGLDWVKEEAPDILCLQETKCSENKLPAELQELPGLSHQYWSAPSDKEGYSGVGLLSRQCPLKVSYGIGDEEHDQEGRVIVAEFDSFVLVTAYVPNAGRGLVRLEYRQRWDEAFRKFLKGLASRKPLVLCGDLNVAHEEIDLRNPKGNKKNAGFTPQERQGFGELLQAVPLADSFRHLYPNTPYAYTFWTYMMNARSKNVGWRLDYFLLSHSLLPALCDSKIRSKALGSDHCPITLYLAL

Target: DNA repair nuclease/redox regulator APEX1 (Homo sapiens) (UniProt P27695)
Assay: qHTS Assay for Inhibitors of the Human Apurinic/apyrimidinic Endonuclease 1 (APE1); note: nearly all actives have a fitted effect of over 55% in size;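 for activity change, negative = inhibition: plate controls were vehicle for no effect and reference inhibitor for full effect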
Settings: recombinant APE1, TAMRA/BHQ-2 abasic DNA cleavage fluorescence; activity change, negative = inhibition: at 65.8 µM (top of the series)
Procedure, shortened: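 Enzyme (0.75 nM final) and test compound are incubated 15 min at room temperature before adding 50 nM quenched THF abasic-site duplex. Cleavage dequenches TAMRA, followed at 525/598 nm over three reads one minute apart.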
Potency is the fitted concentration of half-maximal effect.

Row | Compound | Potency | activity change, negative = inhibition
1 | Fc1ccccc1CNc1ccc(Cl)cc1 | inconclusive: 1.41 µM [inhibitor, full curve, poor fit] | 
2 | CC(=O)OCC(=O)C1CCC2C3CC=C4CC(O)CCC4(C)C3CCC12C (stereo not drawn) |  | inactive: 24.2%
3 | CCN1/C(=C2\OC(=S)N(C)C2=O)C=Cc2ccccc21 | inconclusive: 15.8 µM [inhibitor, partial curve] | 
4 | O=[N+]([O-])c1ccc(N/N=C/c2ccc(O)c(O)c2O)c(S(=O)(=O)N2CCOCC2)c1 | inconclusive: 3.98 µM [inhibitor, full curve] | 
5 | Cc1noc(C)c1-c1ccc2ncnc(NCc3ccc4[nH]ccc4c3)c2c1 | inconclusive: 31.6 µM [inhibitor, single point] | 
6 | COC(=O)C(C(=O)OC)C1O[C@@]23COCCC2(C)C3c2ccccc21 (stereo partly drawn) | inconclusive: 7.08 µM [inhibitor, single point] | 
7 | COc1cccc(C(C(=O)NC(C)(C)C)N(C(=O)CCC(=O)Nc2cc(C)on2)C(C)C)c1OC (stereo not drawn) | inconclusive: 0.398 µM [inhibitor, full curve, poor fit] | 
8 | COc1ccc(N=C2NC(=O)/C(=C\C=C\c3ccco3)S2)cc1 | inconclusive: 22.4 µM [inhibitor, partial curve] | 
9 | O=C(O)C1C2C=CC(C2)C1C(=O)NCCc1ccncc1 (stereo not drawn) | inconclusive: 15.8 µM [inhibitor, single point] | 
10 | Cc1ccc(C(=O)N/N=C/c2cccc(OC(=O)/C=C/c3ccco3)c2)cn1 | active: 14.1 µM | 
11 | CCCCNC(=S)N1CCN(C(c2ccccc2)c2ccccc2)CC1 | inconclusive: 1.12 µM [inhibitor, full curve, poor fit] | 
12 | Cc1cccc(C(=O)c2cnc3ccccc3c2-c2ccccc2)c1 | inconclusive: 1.12 µM [inhibitor, partial curve] | 
13 | CCNc1ccc2noc3c2c1C(=O)c1ccccc1-3 | active: 3.16 µM | 
14 | O=C(CSc1nnc(-c2ccncc2)o1)Nc1ccccc1C(F)(F)F |  | inactive: 37%
15 | CCOC(=O)c1sc(NC(=O)C2C3C=CC(C3)C2C(=O)O)nc1C (stereo not drawn) | inconclusive: 28.2 µM [inhibitor, single point] | 
16 | Cc1ccc2c(CC(=O)O)coc2c1C | inconclusive: 50.1 µM [inhibitor, partial curve, poor fit] | 
17 | COc1ccccc1/C=C(/CC(=O)NCc1ccccc1)c1nc2ccccc2s1 |  | inactive: 2.06%
18 | Cc1onc(-c2ccccc2)c1C(=O)NNC(=S)NC(=O)c1ccc(Br)cc1 | inconclusive: 44.7 µM [inhibitor, partial curve] | 
19 | COc1cc(NS(=O)(=O)c2ccc(NC(=S)NC(=O)c3ccco3)cc2)nc(OC)n1 | inconclusive: 0.005 µM [inhibitor, full curve] | 
20 | C=C(C)C(=O)Nc1ccc(OC(F)(F)C(F)F)c(NC(=O)C(=C)C)c1 |  | inactive: -11.1%
21 | Cc1ccc(CN2CCN(CC(=O)N/N=C/c3c[nH]c4ccccc34)CC2)cc1 | inconclusive: 35.5 µM [inhibitor, single point] | 
22 | CCOC(=O)c1sc2nc(N3CCOCC3)c3c(c2c1N)CCCC3 |  | inactive: -3.65%

Two records drawn at random from the list so far:
Row | Compound | Potency | activity change, negative = inhibition
2 | CC(=O)OCC(=O)C1CCC2C3CC=C4CC(O)CCC4(C)C3CCC12C (stereo not drawn) |  | inactive: 24.2%
7 | COc1cccc(C(C(=O)NC(C)(C)C)N(C(=O)CCC(=O)Nc2cc(C)on2)C(C)C)c1OC (stereo not drawn) | inconclusive: 0.398 µM [inhibitor, full curve, poor fit] | 

Going on with the list:

Row | Compound | Potency | activity change, negative = inhibition
23 | CN1CC=C2C(C#N)=C(N)C(C#N)(C#N)[C@H](c3cccs3)[C@H]2C1 | inconclusive: 50.1 µM [inhibitor, partial curve, poor fit] | 
24 | CC1=CCC[C@@H]2[C@@](C)(CC/C(C)=C/C(=O)O)[C@H](C)CC[C@@]12C | inconclusive: 7.94 µM [inhibitor, single point] | 
25 | CC(C)(C)OC(=O)NCCCCCC(=O)N/N=C/c1coc2ccccc2c1=O | inconclusive: 7.94 µM [inhibitor, single point] | 
26 | Cc1ccc(C2=NN=C(NC(=O)CSc3nnc4c5ccccc5n(C)c4n3)SC2)cc1 |  | inactive: 14.9%
27 | O=C(NCc1nc2ccccc2[nH]1)c1ccc(Cl)c(S(=O)(=O)N2CCCC2)c1 | inconclusive: 39.8 µM [inhibitor, single point] | 
28 | Cc1cnc(CN(C)C(=O)CC2C(=O)NCCN2CCCc2ccccc2)[nH]1 (stereo not drawn) |  | inactive: 5.5%
29 | CCOc1cc(C2C(C#N)=C(N)Oc3n[nH]c(-c4ccncc4)c32)cc([N+](=O)[O-])c1O (stereo not drawn) | inconclusive: 0.0501 µM [inhibitor, full curve] | 
30 | NC(N)=Nc1nc(-c2ccccc2)c2cc(F)ccc2n1 |  | inactive: 2.88%
31 | COc1ccc(C(=O)N/N=C/c2ccc(OC)c(CN3CCCc4ccccc43)c2)cc1 |  | inactive: 0.702%
32 | CCOC(=O)c1c(NC(=O)C2CCCN(S(=O)(=O)c3ccccc3)C2)sc2c1CCCC2 (stereo not drawn) | inconclusive: 2 µM [inhibitor, partial curve] | 
33 | CCOC(=O)c1cn2nc(Oc3ccc(NC(C)=O)cc3)ccc2n1 | inconclusive: 3.55 µM [inhibitor, single point] | 
34 | CC(C)(C)NC(=O)NC(=O)CSc1ncn[nH]1 |  | inactive: -0.743%
35 | CO/N=C\CC(=O)Nc1ccc(Cl)cc1Cl | inconclusive: 44.7 µM [inhibitor, single point] | 
36 | CCC(=O)CC(NC(=O)OC)c1ccc(F)cc1 (stereo not drawn) | inconclusive: 3.16 µM [inhibitor, single point] | 
37 | Cc1ccc(C(=O)OCC(=O)c2ccc(Cl)s2)s1 | inconclusive: 39.8 µM [inhibitor, partial curve, poor fit] | 
38 | S=c1[nH]nc([C@@H]2C[C@H]2c2ccccc2)n1-c1ccccc1Cl | inconclusive: 3.55 µM [inhibitor, single point] | 
39 | CCOC(=O)/C=C1\CN(Cc2cc(OC)c(OC)c(OC)c2)S(=O)(=O)c2ccccc21 | inconclusive: 37.7 µM [inhibitor, single point] | 
40 | C[C@]12c3[nH]c4ccccc4c3CCN1C(=O)C(CC(=O)NCCN1CCOCC1)C[C@@H]2C(=O)N1CCOCC1 (stereo partly drawn) | inconclusive: 29.9 µM [inhibitor, single point] | 
41 | O=C1C=CC2=C3c4cc(O)c(O)cc4CC3(O)COC2=C1O (stereo not drawn) | active: 0.112 µM | 
42 | COc1cccc(CN(C)C(=O)c2ccc3nccnc3c2)c1 |  | inactive: 1.14%
43 | O=C(Nc1cccc(F)c1)N1CCC2(CC1)CCN(C(=O)c1cc(C(F)(F)F)cc(C(F)(F)F)c1)CC2 | inconclusive: 44.7 µM [inhibitor, single point] | 
